Laboratory results from US5795885A, “Method of inhibiting profileration of cells by administering an aminosterol compound” (priority 1995, dated 1998).
At least one compound was matched to its structure with a doubt left.

Test system: stage 59-60 Xenopus tadpoles
Details: 10 μg/mL

CC(CCC(=O)O)[C@H]1CCC2C3CC[C@H]4C[C@H](NCCCNCCCCN)CC[C@]4(C)C3CC[C@@]21C (stereo partly shown)
Tadpole: E (epithelial): -
